# Laboratory results published in PMC5996148.
# Where “and” joins values, the source holds several entries; their conditions need not be identical. Equal values may be shown once. This is one part of the list. For some assays here: The exact form of the protein is not confirmed.
# Tests used:
# Test in all cases: protein microarray (ProtoArray v5.0), streptavidin-Alexa Fluor 647
# Details in all cases: 3'-biotin; 20 mM Tris (pH 7.5), 5 mM MgCl2, 100 mM KCl, 0.1% Tween-20, A/T-rich and random oligonucleotide blockers; temperature not stated; high values mean tight binding
# SKP1A (human) = system: SKP1A (human)
# SLC1A6 = target: T1, SLC1A6 (UniProt P48664)
# T1 sequence: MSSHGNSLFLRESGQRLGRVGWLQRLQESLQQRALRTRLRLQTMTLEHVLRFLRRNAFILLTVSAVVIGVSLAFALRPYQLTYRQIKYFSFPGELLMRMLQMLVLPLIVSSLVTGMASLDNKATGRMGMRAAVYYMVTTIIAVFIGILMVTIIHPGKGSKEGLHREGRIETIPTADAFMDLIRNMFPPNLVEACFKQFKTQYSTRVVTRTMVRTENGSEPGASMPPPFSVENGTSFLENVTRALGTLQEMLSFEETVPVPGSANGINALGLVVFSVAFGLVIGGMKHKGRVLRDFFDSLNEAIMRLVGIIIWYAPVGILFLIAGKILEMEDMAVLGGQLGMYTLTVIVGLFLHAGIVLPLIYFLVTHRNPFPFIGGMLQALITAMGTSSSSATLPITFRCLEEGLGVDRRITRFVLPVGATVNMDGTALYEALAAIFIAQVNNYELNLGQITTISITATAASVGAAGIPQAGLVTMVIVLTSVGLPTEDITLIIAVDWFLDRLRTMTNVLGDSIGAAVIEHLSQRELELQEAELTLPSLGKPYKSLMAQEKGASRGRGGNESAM
# SLC26A2 (human) = system: SLC26A2 (human)
# SLC2A5 (human) = system: SLC2A5 (human)
# SLC39A1 (human) = system: SLC39A1 (human)
# SLC40A1 (human) = system: SLC40A1 (human)
# SLC7A1 (human) = system: SLC7A1 (human)
# SMAD1 (human) = system: SMAD1 (human)
# SMCP (human) = system: SMCP (human)
# SMPD3 (human) = system: SMPD3 (human)
# SMUG1 (human) = system: SMUG1 (human)
# SNAPC5 = target: T2, SNAPC5 (UniProt O75971)
# T2 sequence: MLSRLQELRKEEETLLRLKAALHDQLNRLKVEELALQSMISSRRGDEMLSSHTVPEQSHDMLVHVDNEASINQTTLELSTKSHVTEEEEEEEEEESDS
# SNCB = SNCB (UniProt Q16143)
# SNFT = target: T3, SNFT (UniProt Q9NR55)
# T3 sequence: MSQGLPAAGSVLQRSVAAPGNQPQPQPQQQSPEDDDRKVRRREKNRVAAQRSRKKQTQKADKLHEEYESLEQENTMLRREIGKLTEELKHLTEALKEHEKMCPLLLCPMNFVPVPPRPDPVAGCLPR
# SNRPB = SNRPB (UniProt P14678)
# SOD1 (human) = system: SOD1 (human)
# SP100 (human) = system: SP100 (human)
# SPAG16 (human) = system: SPAG16 (human)
# SPAG8 (human) = system: SPAG8 (human)
# SPAG9 (human) = system: SPAG9 (human)
sequence,measurement,setting,value
GGTGACAGGGGTATGGGGAGGGG [G4-2 biotinylated (Ct1)],binding signal,SKP1A (human),-0.4 z-score
same,binding signal,SLC1A6,-0.368 z-score
same,binding signal,SLC26A2 (human),-0.383 z-score
same,binding signal,SLC2A5 (human),-0.375 z-score and -0.385 z-score
same,binding signal,SLC39A1 (human),-0.382 z-score
same,binding signal,SLC40A1 (human),-0.375 z-score
same,binding signal,SLC7A1 (human),-0.393 z-score
same,binding signal,SMAD1 (human),-0.386 z-score
same,binding signal,SMCP (human),-0.393 z-score
same,binding signal,SMPD3 (human),-0.383 z-score
same,binding signal,SMUG1 (human),-0.36 z-score
same,binding signal,SNAPC5,-0.373 z-score
same,binding signal,SNCB,-0.403 z-score
same,binding signal,SNFT,6 z-score
same,binding signal,SNRPB,3.14 z-score
same,binding signal,SOD1 (human),-0.378 z-score
same,binding signal,SP100 (human),-0.377 z-score
same,binding signal,SPAG16 (human),-0.382 z-score
same,binding signal,SPAG8 (human),-0.368 z-score
same,binding signal,SPAG9 (human),-0.371 z-score

# A second format for part of the listing above:
sequence	measurement	setting	value
GGTGACAGGGGTATGGGGAGGGG [G4-2 biotinylated (Ct1)]	binding signal	SLC26A2 (human)	-0.383 z-score
same	binding signal	SLC2A5 (human)	-0.375 z-score and -0.385 z-score
